{"source": "patent US5668133A", "about": "“Ophthalmic compositions comprising emedastine and methods for their use” (priority 1995, dated 1997)", "test_system": "histamine-induced vascular permeability in guinea pig conjunctiva", "assay": "histamine-induced vascular permeability in guinea pig conjunctiva, topical ocular pretreatment", "assay_type": "in vivo, guinea pig (Male Dunkin Hartley)", "details": "30 min pretreatment; relative to emedastine difumarate = 1.0; (95% Confidence limits)", "description": "The topical ocular antihistaminic effect of emedastine difumarate was assessed in a model of histamine induced vascular permeability in guinea pig conjunctiva. The potency of emedastine difumarate in this model was then compared with those of reference antihistamines.\nMale Dunkin Hartley Viral Antibody Free outbred guinea pigs (Charles River Labs, Portage, Mich.), weighing approximately 250-350 grams (6/group) were injected intravenously (i.v.) via the marginal ear vein with 1.0 mL of Evans Blue dye (1.0 mg/mL). Forty-five (45) minutes post dye injection, 20 μL of test compound or saline vehicle was applied topically to one eye of each experimental animal. […] Responses were quantitated as described by Yanni et al. in Int. Arch. Allergy Immunol., 101:102-106 (1993). Response scores from the treated groups were then compared with scores obtained in the saline-treated group using Dunnett's t test (Dunnett C. W., \"A multiple comparison procedure for comparing treatments with a control.\" J. Am. Stat. Assoc. 50:1096-1121(1955)). Regression analysis was used to determine relative potency (Bliss, C. and E. Gjorgy. In Vitamin Methods, Vol. 2, pp. 445-610, Academic Press, Inc., New York, 1951.)."}
{"smiles": "CN1CCC[C@@H]1CCO[C@](C)(c1ccccc1)c1ccc(Cl)cc1", "note": "[Clemastine, reference compound]", "values": [{"measurement": "Potency", "result": "0.105 (0.063-0.176)"}]}
